Test results: paper PMC5440044
Results are given in words; binding and its absence hold for the method and conditions named. Binding seen in cells or lysates may run through a third protein. Some entries that bind do so weakly or less than the wild type. For some assays here: Where a sequence is shown, tags or fusion partners need not be part of it.

Protein sequences, listed by entry. Tags and fused reporters are not part of them.
UniProt P87154: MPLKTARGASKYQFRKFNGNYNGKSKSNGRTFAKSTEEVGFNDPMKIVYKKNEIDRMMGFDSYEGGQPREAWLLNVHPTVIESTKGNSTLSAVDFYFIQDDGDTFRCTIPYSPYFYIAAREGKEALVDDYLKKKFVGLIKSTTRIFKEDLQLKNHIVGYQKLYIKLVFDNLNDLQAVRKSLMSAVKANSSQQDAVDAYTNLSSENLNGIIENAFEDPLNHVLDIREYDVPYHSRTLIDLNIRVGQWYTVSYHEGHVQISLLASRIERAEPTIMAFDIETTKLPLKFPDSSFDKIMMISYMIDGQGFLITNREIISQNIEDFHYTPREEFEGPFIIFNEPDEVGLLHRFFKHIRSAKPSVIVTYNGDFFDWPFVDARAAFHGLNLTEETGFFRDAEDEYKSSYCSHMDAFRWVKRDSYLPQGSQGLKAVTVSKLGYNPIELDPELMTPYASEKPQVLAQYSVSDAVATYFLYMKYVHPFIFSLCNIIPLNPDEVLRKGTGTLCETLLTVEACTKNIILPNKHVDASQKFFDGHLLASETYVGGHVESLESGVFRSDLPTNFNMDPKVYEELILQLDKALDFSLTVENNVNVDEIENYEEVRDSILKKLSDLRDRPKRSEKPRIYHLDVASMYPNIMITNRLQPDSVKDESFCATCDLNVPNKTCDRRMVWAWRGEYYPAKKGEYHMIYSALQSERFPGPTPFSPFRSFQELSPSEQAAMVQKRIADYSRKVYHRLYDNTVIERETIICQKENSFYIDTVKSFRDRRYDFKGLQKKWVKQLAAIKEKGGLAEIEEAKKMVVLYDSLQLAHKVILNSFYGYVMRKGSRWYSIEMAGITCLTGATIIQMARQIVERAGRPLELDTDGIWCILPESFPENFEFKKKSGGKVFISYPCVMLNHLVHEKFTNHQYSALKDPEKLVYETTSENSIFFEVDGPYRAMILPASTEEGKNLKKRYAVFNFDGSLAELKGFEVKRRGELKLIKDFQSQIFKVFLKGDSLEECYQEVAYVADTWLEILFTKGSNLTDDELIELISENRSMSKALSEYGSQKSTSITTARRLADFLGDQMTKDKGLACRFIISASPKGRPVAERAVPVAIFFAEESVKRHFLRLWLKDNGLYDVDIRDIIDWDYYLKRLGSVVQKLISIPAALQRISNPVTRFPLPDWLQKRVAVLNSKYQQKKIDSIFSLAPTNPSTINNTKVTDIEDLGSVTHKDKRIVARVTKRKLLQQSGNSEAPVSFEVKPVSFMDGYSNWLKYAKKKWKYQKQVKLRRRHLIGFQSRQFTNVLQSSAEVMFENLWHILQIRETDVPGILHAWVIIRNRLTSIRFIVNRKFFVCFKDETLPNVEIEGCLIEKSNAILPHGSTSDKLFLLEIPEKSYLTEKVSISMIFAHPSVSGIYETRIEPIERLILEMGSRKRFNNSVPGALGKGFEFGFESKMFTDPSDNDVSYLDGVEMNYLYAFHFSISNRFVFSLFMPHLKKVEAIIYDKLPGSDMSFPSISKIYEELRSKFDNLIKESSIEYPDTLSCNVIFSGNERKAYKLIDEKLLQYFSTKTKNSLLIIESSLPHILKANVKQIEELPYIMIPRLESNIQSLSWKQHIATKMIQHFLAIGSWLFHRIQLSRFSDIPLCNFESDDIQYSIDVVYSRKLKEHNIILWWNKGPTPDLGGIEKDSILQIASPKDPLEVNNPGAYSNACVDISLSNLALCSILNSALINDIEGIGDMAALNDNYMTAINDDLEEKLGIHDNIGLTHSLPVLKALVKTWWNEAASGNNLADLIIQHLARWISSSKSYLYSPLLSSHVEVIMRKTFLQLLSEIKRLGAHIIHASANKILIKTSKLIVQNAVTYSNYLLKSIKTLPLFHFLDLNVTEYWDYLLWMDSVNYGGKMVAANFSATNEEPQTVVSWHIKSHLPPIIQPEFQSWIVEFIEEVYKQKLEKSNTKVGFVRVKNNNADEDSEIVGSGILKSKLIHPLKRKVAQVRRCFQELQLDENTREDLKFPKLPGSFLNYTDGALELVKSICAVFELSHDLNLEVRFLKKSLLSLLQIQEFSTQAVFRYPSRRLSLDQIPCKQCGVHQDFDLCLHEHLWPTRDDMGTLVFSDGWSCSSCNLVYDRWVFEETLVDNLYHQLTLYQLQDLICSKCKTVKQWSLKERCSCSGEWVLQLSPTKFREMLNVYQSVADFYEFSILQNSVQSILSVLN

Key:
[1] = molecular target: T1, PCNA (S. pombe Pcn1) (S. pombe (endogenous in S. pombe cells)) (UniProt Q03392); assay: co-IP; cells treated with 1% formaldehyde, lysed in RIPA buffer, sonicated, benzonase; immunoprecipitation with anti-PCNA, blot with anti-GFP (tagged polymerase); cells with or without hydroxyurea; rad18Δ, rad18+, Purg1-rad18, ubc13Δ, pcn1-K164R, elg1Δ backgrounds
T1 sequence: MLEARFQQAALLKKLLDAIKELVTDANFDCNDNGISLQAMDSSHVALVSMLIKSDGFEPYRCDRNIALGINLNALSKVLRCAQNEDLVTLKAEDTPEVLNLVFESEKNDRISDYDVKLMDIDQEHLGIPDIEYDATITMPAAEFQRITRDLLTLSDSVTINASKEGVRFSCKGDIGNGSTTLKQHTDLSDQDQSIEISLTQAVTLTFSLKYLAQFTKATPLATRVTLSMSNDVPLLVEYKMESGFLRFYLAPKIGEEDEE

[2] = molecular target: Polε-GFP (catalytic subunit of Polε, Cdc20, GFP tagged) (S. pombe) (UniProt P87154); assay: co-IP; cells treated with 1% formaldehyde, lysed in RIPA buffer, sonicated, benzonase; immunoprecipitation with anti-GFP (tagged polymerase), blot with anti-PCNA; cells with or without hydroxyurea; rad18Δ, rad18+ and Purg1-rad18 cells

binding [1] | binding [2] | Binder
binds weakly | – | Polη, GFP-tagged (S. pombe) (protein, UniProt O42917 1-872) MELGKSKFSWKDLQYCDKAGTQNSPLRVVAHIDQDAFYAQVESVRLGLDHSVPLAVQQWQGLIAVNYAARAANISRHETVTEAKKKCPELCTAHVKTWKAGESEAKYHENPNPNYYKTCLDPYRHESVKILNIIKKHAPVVKKASIDECFIELTSDVKRIVLEEYPYLKIPSEDSNVALPQAPVLLWPAEFGMVIEEEVVDRTKEDYERDWDDVFLFYAAKIVKEIRDDIYLQLKYTCSAGVSFNPMLSKLVSSRNKPNKQTILTKNAIQDYLVSLKITDIRMLGGKFGEEIINLLGTDSIKDVWNMSMDFLIDKLGQTNGPLVWNLCHGIDNTEITTQVQIKSMLSAKNFSQQKVKSEEDAINWFQVFASDLRSRFLELEGMRRPKTICLTVVSRFLRKSRSSQIPMNVDISTQFIVEATSKLLRQLQQEFDVYPISNLSISFQNIIEVDRNSRGIEGFLKKSNDEIYMSTSVSPSIEGRAKLLNENMRENNSFELSSEKDIKSPKRLKRGKGKGIFDMLQQTAVSKPTENSADETYTCEECEQKITLSERNEHEDYHIALSISRKERYNNLVPPSHDKPKQVKPKTYGRKTGSKHYAPLSDETNNKRAFLDAFLGNGGNLTPNWKKQTPKAISNSSDNMTQLHLDLANSTVTCSECSMEYNSTSEEDILLHSRFHSRVLGGVTVSFQCSPIYRVNYGLSSDCIYSINSESSLIDQRKAEEALSFVNNELSSEPIETIGVDKYTTFLFISDKKCVGLLLAERISSAYIVDELELNNNNSTSSAVYIKNENLRKGFVLGISRIWVSASRRKQGIASLLLDNALKKFIYGYVISPAEVAFSQPSESGKQFIISWHRSRNNGSSKSLRYAVYES
– | no binding | PCNA (S. pombe Pcn1) (protein, UniProt Q03392 1-260) MLEARFQQAALLKKLLDAIKELVTDANFDCNDNGISLQAMDSSHVALVSMLIKSDGFEPYRCDRNIALGINLNALSKVLRCAQNEDLVTLKAEDTPEVLNLVFESEKNDRISDYDVKLMDIDQEHLGIPDIEYDATITMPAAEFQRITRDLLTLSDSVTINASKEGVRFSCKGDIGNGSTTLKQHTDLSDQDQSIEISLTQAVTLTFSLKYLAQFTKATPLATRVTLSMSNDVPLLVEYKMESGFLRFYLAPKIGEEDEE
